No constants are given. Whether binding was seen depends on the method and setting. For part of these data: In cells and extracts the contact can be indirect. Some binding calls cover weakened binding; strength is not graded here. Sequences can lack the tags named with a protein.
T1: GAL4 binding domain fused to ATG8H (BD-ATG8H) (Arabidopsis thaliana) (UniProt Q8S925)
T1 sequence: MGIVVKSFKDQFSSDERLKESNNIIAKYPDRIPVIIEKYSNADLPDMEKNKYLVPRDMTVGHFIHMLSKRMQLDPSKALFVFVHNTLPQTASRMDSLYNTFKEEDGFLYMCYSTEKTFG

T2: GFP-ATG8A (transgenic line ProUBQ10-GFP-ATG8A) (Arabidopsis thaliana) (UniProt Q8LEM4)
T2 sequence: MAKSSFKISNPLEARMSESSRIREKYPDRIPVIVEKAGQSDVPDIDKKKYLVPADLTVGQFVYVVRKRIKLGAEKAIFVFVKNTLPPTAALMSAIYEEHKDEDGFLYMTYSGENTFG


Key:
[1] = target: T1, GAL4 binding domain fused to ATG8H (BD-ATG8H) (Arabidopsis thaliana); experiment: two-hybrid
[2] = target: T2, GFP-ATG8A (transgenic line ProUBQ10-GFP-ATG8A) (Arabidopsis thaliana); experiment: co-IP

binding [1]	binding [2]	Binder
binds		GAL4 activation domain fused to ABI3 (AD-ABI3) (protein, UniProt Q01593 1-720) MKSLHVAANAGDLAEDCGILGGDADDTVLMDGIDEVGREIWLDDHGGDNNHVHGHQDDDLIVHHDPSIFYGDLPTLPDFPCMSSSSSSSTSPAPVNAIVSSASSSSAASSSTSSAASWAILRSDGEDPTPNQNQYASGNCDDSSGALQSTASMEIPLDSSQGFGCGEGGGDCIDMMETFGYMDLLDSNEFFDTSAIFSQDDDTQNPNLMDQTLERQEDQVVVPMMENNSGGDMQMMNSSLEQDDDLAAVFLEWLKNNKETVSAEDLRKVKIKKATIESAARRLGGGKEAMKQLLKLILEWVQTNHLQRRRTTTTTTNLSYQQSFQQDPFQNPNPNNNNLIPPSDQTCFSPSTWVPPPPQQQAFVSDPGFGYMPAPNYPPQPEFLPLLESPPSWPPPPQSGPMPHQQFPMPPTSQYNQFGDPTGFNGYNMNPYQYPYVPAGQMRDQRLLRLCSSATKEARKKRMARQRRFLSHHHRHNNNNNNNNNNQQNQTQIGETCAAVAPQLNPVATTATGGTWMYWPNVPAVPPQLPPVMETQLPTMDRAGSASAMPRQQVVPDRRQGWKPEKNLRFLLQKVLKQSDVGNLGRIVLPKKEAETHLPELEARDGISLAMEDIGTSRVWNMRYRFWPNNKSRMYLLENTGDFVKTNGLQEGDFIVIYSDVKCGKYLIRGVKVRQPSGQKPEAPPSSAATKRQNKSQRNINNNSPSANVVVASPTSQTVK
binds		GAL4 activation domain fused to ABI5 (AD-ABI5) (protein, UniProt Q9SJN0 1-442) MVTRETKLTSEREVESSMAQARHNGGGGGENHPFTSLGRQSSIYSLTLDEFQHALCENGKNFGSMNMDEFLVSIWNAEENNNNQQQAAAAAGSHSVPANHNGFNNNNNNGGEGGVGVFSGGSRGNEDANNKRGIANESSLPRQGSLTLPAPLCRKTVDEVWSEIHRGGGSGNGGDSNGRSSSSNGQNNAQNGGETAARQPTFGEMTLEDFLVKAGVVREHPTNPKPNPNPNQNQNPSSVIPAAAQQQLYGVFQGTGDPSFPGQAMGVGDPSGYAKRTGGGGYQQAPPVQAGVCYGGGVGFGAGGQQMGMVGPLSPVSSDGLGHGQVDNIGGQYGVDMGGLRGRKRVVDGPVEKVVERRQRRMIKNRESAARSRARKQAYTVELEAELNQLKEENAQLKHALAELERKRKQQYFESLKSRAQPKLPKSNGRLRTLMRNPSCPL
	binds	cMyc-ABI5 (transgenic line 35S:cMyc-ABI5) (protein, UniProt Q9SJN0 1-442) MVTRETKLTSEREVESSMAQARHNGGGGGENHPFTSLGRQSSIYSLTLDEFQHALCENGKNFGSMNMDEFLVSIWNAEENNNNQQQAAAAAGSHSVPANHNGFNNNNNNGGEGGVGVFSGGSRGNEDANNKRGIANESSLPRQGSLTLPAPLCRKTVDEVWSEIHRGGGSGNGGDSNGRSSSSNGQNNAQNGGETAARQPTFGEMTLEDFLVKAGVVREHPTNPKPNPNPNQNQNPSSVIPAAAQQQLYGVFQGTGDPSFPGQAMGVGDPSGYAKRTGGGGYQQAPPVQAGVCYGGGVGFGAGGQQMGMVGPLSPVSSDGLGHGQVDNIGGQYGVDMGGLRGRKRVVDGPVEKVVERRQRRMIKNRESAARSRARKQAYTVELEAELNQLKEENAQLKHALAELERKRKQQYFESLKSRAQPKLPKSNGRLRTLMRNPSCPL
